# From the supplement of paper PMC8728848
# The list shows a part of the results.
# B1: SLLPI (Mus musculus), Q9D9X8 (protein)
# chain: MGICMSMYTQVLVPVDADGDHHILWSRFYERWGSCFNPCAGLVNCLPPHSSALYLCHRMEARSRAPRRQLCPPGITWLALAYLLSCLLASSKAKVFSRCELAKEMHDFGLDGYRGYNLADWVCLAYYTSGFNTNAVDHEADGSTNNGIFQISSRRWCRTLASNGPNLCRIYCTDLLNNDLKDSIVCAMKIVQEPLGLGYWEAWRHHCQGRDLSDWVDGCDF
# Key:
# Test in all cases: glycan array binding signal (z-score within array); higher = stronger binding
# Details in all cases: glycan notation: IUPAC condensed, linker removed
# [1] = molecular target: Neu5Ac(a2-6)Gal(b1-4)GlcNAc(b1-2)Man(a1-3)[Gal(b1-4)GlcNAc(b1-2)Man(a1-6)]Man(b1-4)GlcNAc(b1-4)GlcNAc
# Summary of the method: (§1)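 Glycan array data came from 3228 arrays in the Consortium for Functional Glycomics database, and only arrays with an available protein sequence were kept. Glycan names were put into IUPAC-condensed notation, and columns mapping to the same glycan were averaged. The binding signal is a within-array Z-score, averaged across arrays of one protein sequence run at different concentrations or buffers and across linkers. A negative Z-score can be read as non-binding.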
# [2] = molecular target: Neu5Ac(a2-6)Gal(b1-4)GlcNAc(b1-2)Man(a1-3)[GlcNAc(b1-2)Man(a1-6)]Man(b1-4)GlcNAc(b1-4)GlcNAc
# Summary of the method: as §1
# [3] = molecular target: Neu5Ac(a2-6)Gal(b1-4)GlcNAc(b1-2)Man(a1-3)[GlcNAc(b1-2)Man(b1-4)GlcNAc(b1-2)Man(a1-6)]Man(b1-4)GlcNAc(b1-4)GlcNAc
# Summary of the method: as §1
# [4] = molecular target: Neu5Ac(a2-6)Gal(b1-4)GlcNAc(b1-2)Man(a1-3)[Neu5Ac(a2-6)Gal(b1-4)GlcNAc(b1-2)Man(a1-6)]Man(b1-4)GlcNAc(b1-4)GlcNAc
# Summary of the method: as §1
# [5] = molecular target: Neu5Ac(a2-6)Gal(b1-4)GlcNAc(b1-2)Man(a1-6)[Gal(b1-4)GlcNAc(b1-2)Man(a1-3)]Man(b1-4)GlcNAc(b1-4)GlcNAc
# Summary of the method: as §1
# [6] = molecular target: Neu5Ac(a2-6)Gal(b1-4)GlcNAc(b1-2)Man(a1-6)[GlcNAc(b1-2)Man(a1-3)]Man(b1-4)GlcNAc(b1-4)GlcNAc
# Summary of the method: as §1
# [7] = molecular target: Neu5Ac(a2-6)Gal(b1-4)GlcNAc(b1-3)Gal(b1-4)GlcNAc
# Summary of the method: as §1
# [8] = molecular target: Neu5Ac(a2-6)Gal(b1-4)GlcNAc(b1-3)Gal(b1-4)[Fuc(a1-3)]GlcNAc(b1-3)Gal(b1-4)[Fuc(a1-3)]GlcNAc
# Summary of the method: as §1
# [9] = molecular target: Neu5Ac(a2-6)Gal(b1-4)GlcNAc6S
# Summary of the method: as §1
# [10] = molecular target: Neu5Ac(a2-6)GalNAc
# Summary of the method: as §1
# [11] = molecular target: Neu5Ac(a2-6)GalNAc(b1-4)GlcNAc
# Summary of the method: as §1
# [12] = molecular target: Neu5Ac(a2-8)Neu5Ac
# Summary of the method: as §1
# [13] = molecular target: Neu5Ac(a2-8)Neu5Ac(a2-3)Gal(b1-4)Glc
# Summary of the method: as §1
# [14] = molecular target: Neu5Ac(a2-8)Neu5Ac(a2-3)[GalNAc(b1-4)]Gal(b1-4)Glc
# Summary of the method: as §1
# [15] = molecular target: Neu5Ac(a2-8)Neu5Ac(a2-8)Neu5Ac
# Summary of the method: as §1
# [16] = molecular target: Neu5Ac(a2-8)Neu5Ac(a2-8)Neu5Ac(a2-3)Gal(b1-4)Glc
# Summary of the method: as §1
# [17] = molecular target: Neu5Ac(a2-8)Neu5Ac(a2-8)Neu5Ac(a2-3)[GalNAc(b1-4)]Gal(b1-4)Glc
# Summary of the method: as §1
# [18] = molecular target: Neu5Ac(a2-8)Neu5Ac(a2-8)Neu5Ac(a2-8)Neu5Ac(a2-3)[GalNAc(b1-4)]Gal(b1-4)Glc
# Summary of the method: as §1
# [19] = molecular target: Neu5Ac(b2-6)Gal(b1-4)GlcNAc
# Summary of the method: as §1
# [20] = molecular target: Neu5Ac(b2-6)GalNAc
# Summary of the method: as §1
# [21] = molecular target: Neu5Ac9Ac(a2-6)Gal(b1-4)GlcNAc
# Summary of the method: as §1
# [22] = molecular target: Neu5Gc(a2-3)Gal(b1-3)GlcNAc
# Summary of the method: as §1
# [23] = molecular target: Neu5Gc(a2-3)Gal(b1-3)[Fuc(a1-4)]GlcNAc
# Summary of the method: as §1
# [24] = molecular target: Neu5Gc(a2-3)Gal(b1-4)Glc
# Summary of the method: as §1
# [25] = molecular target: Neu5Gc(a2-3)Gal(b1-4)GlcNAc
# Summary of the method: as §1
# [26] = molecular target: Neu5Gc(a2-3)Gal(b1-4)[Fuc(a1-3)]GlcNAc
# Summary of the method: as §1
# [27] = molecular target: Neu5Gc(a2-6)Gal(b1-4)GlcNAc
# Summary of the method: as §1
# [28] = molecular target: Neu5Gc(a2-6)GalNAc
# Summary of the method: as §1
# [29] = molecular target: Neu5Gc(b2-6)Gal(b1-4)GlcNAc
# Summary of the method: as §1
binder,measurement,setting,value
B1,glycan array binding signal (z-score),[1],0.555
same,glycan array binding signal (z-score),[2],-1.17
same,glycan array binding signal (z-score),[3],-0.507
same,glycan array binding signal (z-score),[4],-0.478
same,glycan array binding signal (z-score),[5],0.212
same,glycan array binding signal (z-score),[6],0.412
same,glycan array binding signal (z-score),[7],0.144
same,glycan array binding signal (z-score),[8],-0.647
same,glycan array binding signal (z-score),[9],3.29
same,glycan array binding signal (z-score),[10],1.13
same,glycan array binding signal (z-score),[11],-0.104
same,glycan array binding signal (z-score),[12],-0.158
same,glycan array binding signal (z-score),[13],0.408
same,glycan array binding signal (z-score),[14],-0.056
same,glycan array binding signal (z-score),[15],-0.377
same,glycan array binding signal (z-score),[16],-0.787
same,glycan array binding signal (z-score),[17],-1.07
same,glycan array binding signal (z-score),[18],1.09
same,glycan array binding signal (z-score),[19],0.126
same,glycan array binding signal (z-score),[20],0.056
same,glycan array binding signal (z-score),[21],-0.444
same,glycan array binding signal (z-score),[22],0.822
same,glycan array binding signal (z-score),[23],0.864
same,glycan array binding signal (z-score),[24],0.718
same,glycan array binding signal (z-score),[25],-0.143
same,glycan array binding signal (z-score),[26],0.59
same,glycan array binding signal (z-score),[27],-0.577
same,glycan array binding signal (z-score),[28],0.51
same,glycan array binding signal (z-score),[29],-0.026

# Two entries drawn at random from those above:
binder,measurement,setting,value
B1,glycan array binding signal (z-score),[29],-0.026
same,glycan array binding signal (z-score),[13],0.408
